This experiment concerns the target Trichomonas vaginalis adhesion protein 65 (Trichomonas vaginalis) (UniProt A2EKE3). The experiment in a line: co-IP; 293 T cells co-transfected with pDsRed-N1-Flag-SPCS1 and pCMV-3HA-TvAP65, harvested after 24 h; anti-HA antibody (mouse IgG as control) on Protein A + G magnetic beads; lysate mixed at room temperature for 2 h; eluate analysed by Western blotting. In general terms: A western blot detects proteins with antibodies after separation by electrophoresis.

By UniProt entry, the sequences of proteins in these tests, tags left out. Where a name states a change or a piece, a line headed by the entry shows the natural chain unless it says otherwise.
UniProt A2EKE3: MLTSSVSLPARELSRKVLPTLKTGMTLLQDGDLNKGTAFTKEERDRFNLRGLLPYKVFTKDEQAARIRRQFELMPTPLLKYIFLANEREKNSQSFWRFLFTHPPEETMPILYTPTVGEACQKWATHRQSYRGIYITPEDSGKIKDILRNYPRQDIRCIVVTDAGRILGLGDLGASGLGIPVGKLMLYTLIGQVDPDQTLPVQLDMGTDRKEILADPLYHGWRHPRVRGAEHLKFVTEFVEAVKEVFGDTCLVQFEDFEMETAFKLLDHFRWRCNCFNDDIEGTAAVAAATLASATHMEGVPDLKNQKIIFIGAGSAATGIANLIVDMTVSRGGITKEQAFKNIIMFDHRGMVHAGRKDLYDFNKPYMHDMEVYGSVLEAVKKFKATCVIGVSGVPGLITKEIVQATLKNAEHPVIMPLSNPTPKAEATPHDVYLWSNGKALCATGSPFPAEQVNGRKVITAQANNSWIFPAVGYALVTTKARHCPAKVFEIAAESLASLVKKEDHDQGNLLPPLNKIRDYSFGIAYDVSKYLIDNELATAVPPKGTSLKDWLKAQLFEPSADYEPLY

No constants are given. Whether binding was seen depends on the method and setting. In cells and extracts the contact can be indirect. Binding calls can cover weak binding; strength is not graded here.

B1: signal peptidase complex subunit 1 (protein, UniProt Q9Y6A9 1-169)
chain: MARGGDTGCTGPSETSASGAAAIALPGLEGPATDAQCQTLPLTVLKSRSPSPRSLPPALSCPPPQPAMLEHLSSLPTQMDYKGQKLAEQMFQGIILFSAIVGFIYGYVAEQFGWTVYIVMAGFAFSCLLTLPPWPIYRRHPLKWLPVQESSTDDKKPGERKIKRHAKNN
For B1, the binding entry was “binds”.

Values taken from article PMC12590808.
